{"source": "the supplement of paper PMC10849652", "note": "The other results are listed elsewhere or left out.", "data": [{"compound": "Cn1cncc1[C@@](N)(c1ccc(Cl)cc1)c1ccc2c(c1)c(-c1cccc(Cl)c1)cc(=O)n2C [tipifarnib]", "test": "log2 fold change, soluble protein after heating vs DMSO (PISA); higher = thermal stabilisation; K562 cells, 10 uM, 30 min; active = over 0.2 and 3.5 SD of the protein, either way, in both replicates (recomputed)", "outline": "(§1)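 K562 cells at 2×10^6 cells/mL were treated with 10 μM compound for 30 min. Aliquots were heated for 3 min across 48°C-58°C, pooled, and extracted in PBS with 0.5% NP-40 at 4°C; soluble protein was the supernatant after 21,000xg for 90 min. Soluble protein was quantified by TMTpro 16plex LC-MS/MS with channel sums equalised, and reported as log2 fold change in thermal stability against DMSO controls, with values from duplicates.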", "values": [{"target": "NARF (UniProt Q9UHQ1)", "log2 fold change": "inactive: 0.006"}, {"target": "NCAPH (UniProt Q15003)", "log2 fold change": "inactive: -0.102"}, {"target": "NCAPD2 (UniProt Q15021)", "log2 fold change": "inactive: -0.148"}, {"target": "NCLN (UniProt Q969V3)", "log2 fold change": "inactive: 0.028"}, {"target": "NDUFAF2 (UniProt Q8N183)", "log2 fold change": "inactive: -0.028"}, {"target": "NAXE (UniProt Q8NCW5)", "log2 fold change": "inactive: -0.049"}, {"target": "NDUFA11 (UniProt Q86Y39)", "log2 fold change": "inactive: 0.071"}, {"target": "NAP1L4 isoform 2 (UniProt Q99733)", "log2 fold change": "inactive: -0.044"}, {"target": "NDUFB5 (UniProt O43674)", "log2 fold change": "inactive: -0.001"}, {"target": "NDEL1 isoform 2 (UniProt Q9GZM8)", "log2 fold change": "inactive: -0.051"}, {"target": "NCDN isoform 3 (UniProt Q9UBB6)", "log2 fold change": "inactive: 0.018"}]}, {"compound": "FC(F)(F)c1ccc(/C=C/c2nc(COc3ccc(CCCCn4ccnn4)cc3)co2)cc1 [mubritinib]", "test": "log2 fold change, soluble protein after heating vs DMSO (PISA); higher = thermal stabilisation; K562 cells, 10 uM, 30 min; active = over 0.2 and 3.5 SD of the protein, either way, in both replicates (recomputed)", "outline": "as §1", "values": [{"target": "NDUFA4 (UniProt O00483)", "log2 fold change": "inactive: 0.018"}, {"target": "MZT2A (UniProt Q6P582)", "log2 fold change": "inactive: -0.007"}, {"target": "NDUFB6 (UniProt O95139)", "log2 fold change": "inactive: 0"}, {"target": "NAA30 (UniProt Q147X3)", "log2 fold change": "inactive: 0.109"}, {"target": "NDUFAF5 (UniProt Q5TEU4)", "log2 fold change": "inactive: 0.123"}, {"target": "NEFH (UniProt P12036)", "log2 fold change": "inactive: -0.417"}, {"target": "NCAPG2 isoform 2 (UniProt Q86XI2)", "log2 fold change": "inactive: 0.068"}, {"target": "NDUFS5 (UniProt O43920)", "log2 fold change": "inactive: 0.023"}, {"target": "NAA10 (UniProt P41227)", "log2 fold change": "inactive: -0.014"}, {"target": "NDRG2 (UniProt Q9UN36)", "log2 fold change": "inactive: 0.034"}, {"target": "NADSYN1 (UniProt Q6IA69)", "log2 fold change": "inactive: 0.026"}, {"target": "NCOR2 (UniProt C9J0Q5)", "log2 fold change": "inactive: 0.094"}, {"target": "NAP1L1 (UniProt P55209)", "log2 fold change": "inactive: -0.014"}, {"target": "NECAP1 (UniProt Q8NC96)", "log2 fold change": "inactive: 0.038"}, {"target": "NDUFA2 (UniProt O43678)", "log2 fold change": "inactive: 0.148"}, {"target": "NCOR1 (UniProt O75376)", "log2 fold change": "inactive: 0.041"}, {"target": "NAPRT (UniProt Q6XQN6)", "log2 fold change": "inactive: 0.045"}, {"target": "NA, A0A0B4J2A0", "log2 fold change": "inactive: -0.011"}, {"target": "N6AMT1 (UniProt Q9Y5N5)", "log2 fold change": "inactive: 0.053"}, {"target": "NDUFA10 (UniProt O95299)", "log2 fold change": "inactive: 0.185"}, {"target": "NEBL isoform 2 (UniProt O76041)", "log2 fold change": "inactive: 0.056"}, {"target": "NDUFA7 (UniProt O95182)", "log2 fold change": "active: 0.247"}, {"target": "NAXD (UniProt Q8IW45)", "log2 fold change": "inactive: 0.05"}, {"target": "NARF (UniProt Q9UHQ1)", "log2 fold change": "inactive: 0.027"}, {"target": "NCAPH (UniProt Q15003)", "log2 fold change": "inactive: 0.019"}, {"target": "NCAPD2 (UniProt Q15021)", "log2 fold change": "inactive: 0.033"}, {"target": "NCLN (UniProt Q969V3)", "log2 fold change": "inactive: -0.024"}, {"target": "NDUFAF2 (UniProt Q8N183)", "log2 fold change": "inactive: 0.001"}, {"target": "NAXE (UniProt Q8NCW5)", "log2 fold change": "inactive: -0.026"}, {"target": "NDUFA11 (UniProt Q86Y39)", "log2 fold change": "inactive: 0.017"}, {"target": "NAP1L4 isoform 2 (UniProt Q99733)", "log2 fold change": "inactive: -0.001"}, {"target": "NDUFB5 (UniProt O43674)", "log2 fold change": "inactive: 0.038"}, {"target": "NDEL1 isoform 2 (UniProt Q9GZM8)", "log2 fold change": "inactive: 0.052"}, {"target": "NCDN isoform 3 (UniProt Q9UBB6)", "log2 fold change": "inactive: 0.128"}]}]}
